Source: patent US20110002897A1, “DIRECTED DIFFERENTIATION OF STEM CELLS” (Burnham Institute for Medical Research, priority 2009, published 2011)
Entries after “also recorded” stand apart in the source; their conditions may differ. For at least one compound, name, drawing or mass did not settle the structure.

Legend:
hESCs (H9 cells) = assay: Neural tube-like (NTL) structure formation by hESC colonies grown on HS27 fibroblasts; assay type: cell-based, human; conditions: MK applied together with FGF-2, or MK replaced by the factor
Protocol: To confirm that increased MK levels correlate with differentiation, EBs from hESCs and HS27-iPSCs were generated and quantitatively analyzed MK expression. […] To test if exogenously added MK may display neural-inducing activities, hESCs were cultured in the presence of recombinant MK protein using two different assays. First, manually passaged hESCs (H9 cells) were plated on HS27 fibroblasts and grown in the presence of 100 ng/mL MK. […] These NTLs expressed the typical neuroectodermal markers PAX6 and Nestin (FIG. 1d) and, when single NTLs were manually picked under microscopic guidance and attached to laminin-coated dishes, neuronal cells started migrating out from these structures (FIG. 9). […] Second, MK-induced differentiation was investigated under feeder-free conditions. Manually passaged H9-hESCs cells were plated on Matrigel and grown in 100 ng/mL MK for 6 days.
Human ESC lines H1, H9, H14, BG02, HSF-6, and HUES13 were cultured on matrigel (BD) or Geltrex (Invitrogen) in the presence of MEF-CM (DMEM/F12, 20% Knockout Serum Replacement, non-essential amino acids, 2-mercaptoethanol). In some experiments, hESCs and iPSCs were cultured in mTeSR medium (Stem Cell Technologies). Neural cells were grown in N2B27 supplement (Gibco). […]

H9 hESCs = assay: Feeder-free neural induction on Matrigel, PAX6/Nestin by FACS and immunostaining; assay type: cell-based, human
hESCs = conditions: 50 μM LY294002, McLean et al. 2007; cited from earlier work

## C=C[C@@]1(C)CC(=O)[C@]2(O)[C@@]3(C)[C@@H](O)CCC(C)(C)[C@@H]3[C@H](O)[C@H](OC(C)=O)[C@@]2(C)O1 [Forskolin, reference compound]
hESCs (H9 cells)
  NTL structures observed: never observed

## CO[C@H]1C[C@@H]2CC[C@@H](C)[C@@](O)(O2)C(=O)C(=O)N2CCCC[C@H]2C(=O)O[C@H]([C@H](C)C[C@@H]2CC[C@@H](O)[C@H](OC)C2)CC(=O)[C@H](C)/C=C(\C)[C@@H](O)[C@@H](OC)C(=O)[C@H](C)C[C@H](C)/C=C/C=C/C=C/1C [Rapamycin]
H9 hESCs; Rapamycin 20-40 nM together with 100 ng/mL MK+DAP
  PAX6 expression / neural induction in MK+DAP-treated hESC cultures: This effect was also obtained; also recorded: block neural induction

## O=c1cc(N2CCOCC2)oc2c(-c3ccccc3)cccc12 [LY294002]
hESCs
  effect on hESC differentiation: promoted endodermal differentiation
H9 hESCs; 40 μM inhibitor together with 100 ng/mL MK+DAP
  PAX6 expression / neuralization in MK+DAP-treated hESC cultures: dramatically reduced; also recorded: disruption of neuralization
